# Some of the results follow. The main result of the screen is listed elsewhere. These columns were measured beside it and carry no call. Most of these compounds were active or inconclusive in the main read-out, so they are no random draw. The note in brackets gives the kind of curve behind each potency; many fits are weak.
# Experiment: qHTS Assay for Lipid Storage Modulators in Drosophila S3 Cells;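 on cell number change: cells counted by Cell Tracker Red CMTPX staining in the red channel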
# Conditions: BODIPY lipid droplet fluorescence, 18-24 h; for cell number change: measured here: cell count max response, cells fed with added oleic acid
# Outline: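 Laser-scanning cytometry quantifies lipid droplet accumulation (500–530 nm total intensity; droplet/cell object ratio) in oleic acid-fed (400 uM added) Drosophila S3 cells treated with a concentration series. 20 uM Triacsin C defined 100% inhibition.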
# [1] = measured here: lipid fluorescence (Fed channel) AC50, cells fed with added oleic acid
# [2] = measured here: cell number channel AC50, cells fed with added oleic acid
SMILES,cell number change [%],AC50 [1],AC50 [2]
COc1cccc(C(=O)Nc2ccccc2C(=O)N2CCCC2)c1,5.82,"6510 nM [falling, single point]",
COc1cccc(NC(=O)Cn2c(=O)n(CCCC(=O)NCc3ccco3)c(=O)c3ccccc32)c1,-3.06,,
CC1CC(C)CN(CCCNC(=O)c2cn(C)c3ccc(S(=O)(=O)N4CCCC4)cc3c2=O)C1 (configuration not stated),-11.2,"6510 nM [falling, partial curve, poor fit]",
Cc1cc(C)c2c(n1)nn1c(NCCN3CCOCC3)cc(C)nc21,15.9,"29100 nM [rising, single point]",
Cc1ccc(S(=O)(=O)N2CCOCC2)cc1C(=O)NC1CCCC1,21.2,"130 nM [rising, full curve, poor fit]",
O=C(Nc1ccc(F)cc1)N(CCCN1CCOCC1)Cc1cc2cc3c(cc2[nH]c1=O)OCCO3,,"517 nM [rising, partial curve, poor fit]",
CCOC(=O)c1c(NC(=O)c2cc(C(C)C)on2)sc(C(C)=O)c1C,,"5800 nM [rising, single point]",
CCOC(=O)CN1C(=O)C(Sc2n[nH]c(-c3ccccc3)n2)CCc2ccccc21 (configuration not stated),33.1,,"18400 nM [rising, single point]"
CN1Cc2cc(C(=O)c3cc(Cl)cc(CSc4ncccn4)c3O)cnc2NC1=O,1.99,"920 nM [rising, full curve, poor fit]",
CC12CCC(C(=O)NCc3ccco3)(OC1=O)C2(C)C (configuration not stated),-24,"1640 nM [falling, full curve]",
O=C(CN1C(=O)C2C3C=CC(C3)C2C1=O)Nc1ccc(F)cc1 (configuration not stated),-18,,
CCOC(=O)C1CCCCN1Cc1ccc(-c2ccccc2)cc1 (configuration not stated),25.3,"29100 nM [rising, single point]",
CC(=O)OCC1OC(n2ccc3ccccc32)C(OC(C)=O)C(OC(C)=O)C1OC(C)=O (configuration not stated),,"4110 nM [rising, single point]",
Cc1c(C(=O)NNC(=O)Nc2ccc([N+](=O)[O-])cc2)oc2ccccc12,34.4,"112 nM [falling, full curve, poor fit]","35500 nM [rising, single point]"
COc1ccc(C(=O)N[C@H](C(=O)Nc2nc3ccccc3[nH]2)C(C)C)cc1,,,"146 nM [falling, full curve, poor fit]"
Cc1nc(NC(CC(C)C)C(=O)O)c2nc(C)oc2n1 (configuration not stated),,"731 nM [rising, full curve, poor fit]","651 nM [rising, single point]"
CC(=O)c1cccc(NC(=O)c2ccc3c(c2)OCO3)c1,-8.21,"9200 nM [falling, partial curve, poor fit]",
O=[N+]([O-])c1cc2c(cc1/C=N/n1c(-c3ccccc3)n[nH]c1=S)OCO2,-0.461,"651 nM [falling, single point]",
O=C(O)C1CCCN1C(=O)C1CCN(S(=O)(=O)c2cccc(C(F)(F)F)c2)CC1 (configuration not stated),25,,
COc1ccc(C(=O)N(CCN2CCOCC2)CC(=O)NC2CCCC2)cc1OC,-89.3,"23100 nM [falling, single point]","29100 nM [falling, single point]"

SMILES,cell number change [%],AC50 [1],AC50 [2]
CN(CC(=O)NNC(=O)Cc1ccccc1F)S(=O)(=O)c1ccc(Cl)cc1,-12.3,"3660 nM [rising, single point]",
C/C(=N\NC(=O)c1ccncc1)c1ccc(N(C)C)cc1,29.6,,
COc1ccc(CC(=O)NCC2CCCN(Cc3cccc(C(F)(F)F)c3)C2)cc1 (configuration not stated),16.6,,
O=C(NC1CCN(S(=O)(=O)c2cccc(F)c2)CC1)c1ccc(F)cc1,1.4,,
COc1ccccc1C(=O)NCCC(=O)NCC(c1ccccc1OC)N1CCCC1 (configuration not stated),6.83,,
O=C(NCc1ccccc1)c1c(F)c(F)c(F)c(F)c1F,15.1,"29100 nM [falling, single point]","461 nM [rising, full curve, poor fit]"
C=CCc1cc(C=O)cc(OC)c1OCc1ccc(C(=O)O)cc1,31.1,"20600 nM [rising, single point]",
CCOc1ccc(C(=O)NC(C(=O)NCc2ccccc2OC)C(C)C)cc1 (configuration not stated),39.8,"1840 nM [rising, full curve]","1160 nM [rising, full curve, poor fit]"
Cc1ccccc1NC(=O)c1oc(=O)c2ccccc2c1-c1ccccc1,20.6,"4610 nM [rising, partial curve]",
COc1ccc(CCNS(=O)(=O)c2ccc3c(c2)n(C)c(=O)c(=O)n3C)cc1OC,1.93,"130 nM [falling, full curve, poor fit]",
Cc1cc(OCC(=O)Nc2ccccc2N2CCCC2)ccc1C(C)C,25,"29100 nM [falling, single point]","4.61 nM [falling, full curve, poor fit]"
CC1(C)Cc2c(sc3c2c(N)nc(=S)n3Cc2ccc(Br)cc2)CO1,28,,"92 nM [rising, full curve, poor fit]"
CN(C)S(=O)(=O)c1cccc(NC(=O)COC(=O)CCSc2ccc(Cl)cc2)c1,6.32,"4610 nM [rising, partial curve]",
COc1ccc(CC(=O)N/N=C(\C)CC(=O)Nc2ccc3c(c2)OCCO3)cc1,-0.794,"6510 nM [rising, partial curve, poor fit]",
CN(C)S(=O)(=O)c1ccc(Cl)c(NC(=O)COC(=O)CN2C(=O)C3CCCCC3C2=O)c1 (configuration not stated),68.3,,
CCN1CCN(C(=O)c2cc(-c3ccc(Cl)s3)nc3ccccc23)CC1,-5.25,,
O=C(Cc1c[nH]c2ccccc12)Nc1cccc(S(=O)(=O)N2CCCCC2)c1,,,"2060 nM [rising, partial curve, poor fit]"
CCC(CC)c1nnc(NC(=O)c2ccc3ccccc3n2)s1,,,"146 nM [rising, full curve, poor fit]"
O=C1CCc2cc(S(=O)(=O)N3CCC(C(=O)NCc4ccccc4Cl)CC3)ccc2N1,,,"130 nM [rising, full curve, poor fit]"
